Laboratory results from the supplement of paper PMC10849652.
The other results are listed elsewhere or left out.

The chains behind the UniProt entries cited, without tags or fusion partners. Where a name states a change or a piece, a line headed by the entry shows the natural chain unless it says otherwise.
UniProt Q6DD87: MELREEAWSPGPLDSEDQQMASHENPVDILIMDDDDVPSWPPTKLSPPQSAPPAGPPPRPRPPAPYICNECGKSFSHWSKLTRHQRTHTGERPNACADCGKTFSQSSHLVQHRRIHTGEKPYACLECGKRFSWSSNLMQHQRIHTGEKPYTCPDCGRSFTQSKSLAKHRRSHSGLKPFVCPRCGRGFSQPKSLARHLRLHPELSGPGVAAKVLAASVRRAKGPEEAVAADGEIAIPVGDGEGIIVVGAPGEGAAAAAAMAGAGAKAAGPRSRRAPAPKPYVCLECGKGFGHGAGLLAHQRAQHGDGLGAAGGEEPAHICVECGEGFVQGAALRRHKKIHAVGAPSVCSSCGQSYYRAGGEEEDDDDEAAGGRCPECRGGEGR
UniProt Q2TB10: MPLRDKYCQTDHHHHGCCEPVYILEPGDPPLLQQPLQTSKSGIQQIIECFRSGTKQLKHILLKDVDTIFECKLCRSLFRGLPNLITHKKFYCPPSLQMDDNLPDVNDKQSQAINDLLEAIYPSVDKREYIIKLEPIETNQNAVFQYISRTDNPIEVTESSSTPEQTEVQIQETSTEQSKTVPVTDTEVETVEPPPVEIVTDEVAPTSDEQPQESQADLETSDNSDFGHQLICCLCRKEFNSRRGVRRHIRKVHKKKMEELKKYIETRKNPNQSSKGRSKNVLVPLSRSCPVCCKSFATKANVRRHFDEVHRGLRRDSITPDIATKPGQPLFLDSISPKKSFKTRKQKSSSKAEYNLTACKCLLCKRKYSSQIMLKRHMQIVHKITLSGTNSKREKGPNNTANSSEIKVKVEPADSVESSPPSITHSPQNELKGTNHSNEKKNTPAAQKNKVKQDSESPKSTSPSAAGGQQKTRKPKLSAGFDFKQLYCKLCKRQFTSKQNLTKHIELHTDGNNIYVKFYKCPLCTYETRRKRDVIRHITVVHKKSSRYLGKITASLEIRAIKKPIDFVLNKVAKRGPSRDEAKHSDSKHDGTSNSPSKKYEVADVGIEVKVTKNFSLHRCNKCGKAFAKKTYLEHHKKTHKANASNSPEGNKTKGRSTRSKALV
UniProt Q96NB3: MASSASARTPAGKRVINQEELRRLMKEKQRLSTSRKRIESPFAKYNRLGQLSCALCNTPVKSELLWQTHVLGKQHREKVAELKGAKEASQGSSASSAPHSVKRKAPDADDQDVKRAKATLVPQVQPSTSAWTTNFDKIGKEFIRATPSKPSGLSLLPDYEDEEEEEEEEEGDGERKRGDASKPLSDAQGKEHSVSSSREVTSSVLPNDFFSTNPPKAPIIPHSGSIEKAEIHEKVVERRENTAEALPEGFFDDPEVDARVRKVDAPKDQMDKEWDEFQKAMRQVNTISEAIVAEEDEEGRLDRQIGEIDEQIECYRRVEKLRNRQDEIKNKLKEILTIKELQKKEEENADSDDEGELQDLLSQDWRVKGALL
UniProt Q6ZMS4: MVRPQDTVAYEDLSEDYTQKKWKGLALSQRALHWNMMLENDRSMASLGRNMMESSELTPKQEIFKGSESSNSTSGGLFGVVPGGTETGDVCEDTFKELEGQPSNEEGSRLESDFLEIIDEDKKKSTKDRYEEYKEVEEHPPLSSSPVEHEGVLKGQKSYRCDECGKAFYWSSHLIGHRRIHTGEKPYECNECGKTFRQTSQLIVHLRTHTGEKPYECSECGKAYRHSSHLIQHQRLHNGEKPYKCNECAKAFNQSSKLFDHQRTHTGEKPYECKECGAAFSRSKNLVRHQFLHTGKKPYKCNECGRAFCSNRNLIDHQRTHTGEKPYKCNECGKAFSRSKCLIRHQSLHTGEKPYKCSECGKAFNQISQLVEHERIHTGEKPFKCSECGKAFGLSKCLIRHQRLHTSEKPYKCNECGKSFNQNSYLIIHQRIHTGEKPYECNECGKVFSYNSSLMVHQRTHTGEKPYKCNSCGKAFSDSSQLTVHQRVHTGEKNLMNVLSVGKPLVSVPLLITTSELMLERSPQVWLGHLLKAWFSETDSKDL
UniProt O43257, whole entry, looked up: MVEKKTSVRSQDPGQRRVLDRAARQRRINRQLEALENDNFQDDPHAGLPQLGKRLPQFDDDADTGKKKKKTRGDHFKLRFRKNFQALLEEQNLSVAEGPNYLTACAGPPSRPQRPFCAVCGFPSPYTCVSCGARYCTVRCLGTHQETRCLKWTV
UniProt Q15649: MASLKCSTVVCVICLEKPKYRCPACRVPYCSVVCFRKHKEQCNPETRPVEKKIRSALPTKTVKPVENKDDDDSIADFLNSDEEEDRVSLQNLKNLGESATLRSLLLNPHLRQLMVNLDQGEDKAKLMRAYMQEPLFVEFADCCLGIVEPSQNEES
UniProt Q9NWK9: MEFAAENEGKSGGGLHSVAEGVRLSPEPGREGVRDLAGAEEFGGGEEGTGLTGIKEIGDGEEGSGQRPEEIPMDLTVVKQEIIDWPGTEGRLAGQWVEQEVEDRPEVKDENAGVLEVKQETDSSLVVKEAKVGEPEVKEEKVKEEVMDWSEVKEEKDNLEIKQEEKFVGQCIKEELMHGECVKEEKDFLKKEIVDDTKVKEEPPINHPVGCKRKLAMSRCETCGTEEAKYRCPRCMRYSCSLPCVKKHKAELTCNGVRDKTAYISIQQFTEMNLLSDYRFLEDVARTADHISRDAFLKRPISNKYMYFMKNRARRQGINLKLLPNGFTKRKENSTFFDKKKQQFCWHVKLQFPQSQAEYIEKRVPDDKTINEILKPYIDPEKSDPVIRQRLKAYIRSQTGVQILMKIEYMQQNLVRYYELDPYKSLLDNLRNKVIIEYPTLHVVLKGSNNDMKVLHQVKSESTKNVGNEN
UniProt Q9P1U0, whole entry, looked up: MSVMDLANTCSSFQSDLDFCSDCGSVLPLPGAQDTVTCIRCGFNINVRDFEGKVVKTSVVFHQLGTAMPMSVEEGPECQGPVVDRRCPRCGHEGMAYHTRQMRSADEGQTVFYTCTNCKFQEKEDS
UniProt Q9P2E3: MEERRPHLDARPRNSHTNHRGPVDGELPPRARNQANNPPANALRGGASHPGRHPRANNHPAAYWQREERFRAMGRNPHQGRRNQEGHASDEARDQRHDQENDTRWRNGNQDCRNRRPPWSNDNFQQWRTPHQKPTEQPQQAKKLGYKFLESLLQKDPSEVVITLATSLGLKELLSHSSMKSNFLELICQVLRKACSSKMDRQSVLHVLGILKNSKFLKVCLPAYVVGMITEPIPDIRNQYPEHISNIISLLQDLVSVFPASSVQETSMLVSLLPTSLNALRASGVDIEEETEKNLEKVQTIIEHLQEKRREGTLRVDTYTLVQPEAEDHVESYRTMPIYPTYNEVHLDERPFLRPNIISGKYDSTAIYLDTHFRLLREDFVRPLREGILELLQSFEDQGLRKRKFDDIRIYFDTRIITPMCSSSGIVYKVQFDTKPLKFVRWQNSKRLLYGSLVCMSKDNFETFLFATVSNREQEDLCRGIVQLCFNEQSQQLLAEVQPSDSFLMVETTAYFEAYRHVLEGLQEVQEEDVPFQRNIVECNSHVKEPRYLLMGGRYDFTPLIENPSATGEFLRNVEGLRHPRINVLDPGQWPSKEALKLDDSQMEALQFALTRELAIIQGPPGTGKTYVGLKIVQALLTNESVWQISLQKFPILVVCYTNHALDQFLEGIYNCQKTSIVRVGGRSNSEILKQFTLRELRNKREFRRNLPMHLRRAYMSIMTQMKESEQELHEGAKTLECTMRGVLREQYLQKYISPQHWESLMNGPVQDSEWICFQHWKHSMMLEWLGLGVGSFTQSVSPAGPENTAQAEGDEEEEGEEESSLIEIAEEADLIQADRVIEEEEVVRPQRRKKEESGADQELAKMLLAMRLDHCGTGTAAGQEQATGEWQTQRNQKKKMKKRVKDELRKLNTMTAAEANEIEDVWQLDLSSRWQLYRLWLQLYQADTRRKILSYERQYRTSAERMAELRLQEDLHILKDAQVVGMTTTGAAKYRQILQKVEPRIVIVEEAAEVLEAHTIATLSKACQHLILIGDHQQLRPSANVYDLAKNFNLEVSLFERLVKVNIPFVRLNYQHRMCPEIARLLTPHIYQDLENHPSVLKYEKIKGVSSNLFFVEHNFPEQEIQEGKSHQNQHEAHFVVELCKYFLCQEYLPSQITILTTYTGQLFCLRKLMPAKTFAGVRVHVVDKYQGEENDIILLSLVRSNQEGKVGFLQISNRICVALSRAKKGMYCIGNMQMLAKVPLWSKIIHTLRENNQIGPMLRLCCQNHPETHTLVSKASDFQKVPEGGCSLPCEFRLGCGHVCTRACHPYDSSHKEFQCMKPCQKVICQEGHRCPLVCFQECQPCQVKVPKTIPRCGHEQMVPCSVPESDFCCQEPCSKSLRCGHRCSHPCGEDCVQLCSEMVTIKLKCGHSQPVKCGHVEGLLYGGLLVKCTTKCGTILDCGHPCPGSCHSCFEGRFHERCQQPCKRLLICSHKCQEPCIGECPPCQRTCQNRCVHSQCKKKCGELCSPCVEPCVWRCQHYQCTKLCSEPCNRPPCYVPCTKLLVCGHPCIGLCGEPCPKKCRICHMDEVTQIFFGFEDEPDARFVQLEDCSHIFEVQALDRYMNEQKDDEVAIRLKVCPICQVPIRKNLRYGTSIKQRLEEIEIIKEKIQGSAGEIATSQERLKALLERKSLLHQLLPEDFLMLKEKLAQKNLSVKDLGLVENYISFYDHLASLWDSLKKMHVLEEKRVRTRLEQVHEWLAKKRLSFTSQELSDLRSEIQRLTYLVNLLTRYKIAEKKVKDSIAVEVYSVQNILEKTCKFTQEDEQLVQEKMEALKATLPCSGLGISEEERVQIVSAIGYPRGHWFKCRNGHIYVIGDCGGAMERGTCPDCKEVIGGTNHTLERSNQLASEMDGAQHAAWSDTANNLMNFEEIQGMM

What was measured:
Assay in all cases: log2 fold change, soluble protein after heating vs DMSO (PISA); higher = thermal stabilisation; K562 cells, 10 uM, 30 min; active = over 0.2 and 3.5 SD of the protein, either way, in both replicates (recomputed)
ZNF787 = ZNF787 (UniProt Q6DD87)
Outline: (§1)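 Thermal stability values are relative to control samples and come from duplicates. They are expressed as log2 fold changes. For measurement, K562 cells (2×10^6 cells/mL) received 10 μM compound for 30 min, and aliquots were heated for 3 min over 48°C-58°C, pooled, and extracted at 4°C in PBS with 0.5% NP-40. Soluble protein, the supernatant after 21,000xg for 90 min, was quantified by TMTpro 16plex LC-MS/MS with equalised channel sums.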

ZNF800 = ZNF800 (UniProt Q2TB10)
Outline: as §1

ZNF830 = ZNF830 (UniProt Q96NB3)
Outline: as §1

ZNF852 = ZNF852 (UniProt Q6ZMS4)
Outline: as §1

ZNHIT1 = ZNHIT1 (UniProt O43257)
Outline: as §1

ZNHIT3 = ZNHIT3 (UniProt Q15649)
Outline: as §1

ZNHIT6 = ZNHIT6 (UniProt Q9NWK9)
Outline: as §1

ZNRD1 = ZNRD1 (UniProt Q9P1U0)
Outline: as §1

ZNFX1 = ZNFX1 (UniProt Q9P2E3)
Outline: as §1

Measured: log2 fold change

CN1CCN(c2nc(C3=C(c4c[nH]c5ccccc45)C(=O)NC3=O)c3ccccc3n2)CC1 [sotrastaurin]
inactive: ZNF787 = 0.094 | ZNF800 = 0.079 | ZNF830 = 0.004 | ZNF852 = -0.029 | ZNHIT1 = 0.028 | ZNHIT3 = 0.06 | ZNHIT6 = 0.029 | ZNRD1 = 0.015

CC1=C(C(=O)Nc2cc3cn[nH]c3cc2F)C(c2ccc(C(F)(F)F)cc2)CC(=O)N1 (stereo not given)
inactive: ZNF787 = 0.062 | ZNF800 = 0.075 | ZNF830 = 0.001 | ZNHIT1 = 0.064 | ZNHIT3 = 0.106 | ZNHIT6 = -0.054 | ZNRD1 = 0.237

O=C1NC(=O)C(c2cnc3ccccn23)=C1c1cn2c3c(cc(F)cc13)CN(C(=O)N1CCCCC1)CC2
inactive: ZNF787 = 0.086 | ZNF830 = -0.013 | ZNF852 = 0.125 | ZNFX1 = 0.418 | ZNHIT1 = 0.037 | ZNHIT3 = -0.046 | ZNRD1 = -0.032

Cc1cc(Nc2cc(N3CCN(C)CC3)nc(Sc3ccc(NC(=O)C4CC4)cc3)n2)n[nH]1 [tozasertib]
inactive: ZNF787 = 0.023 | ZNF800 = -0.04 | ZNF830 = -0.018 | ZNHIT3 = 0.041 | ZNHIT6 = 0.007 | ZNRD1 = 0.028

C#Cc1cccc(Nc2ncnc3cc(OCCOC)c(OCCOC)cc23)c1 [erlotinib]
inactive: ZNF787 = -0.145 | ZNF830 = 0.008 | ZNF852 = -0.051 | ZNHIT1 = 0.086 | ZNHIT3 = -0.021 | ZNHIT6 = -0.02 | ZNRD1 = 0.049

O=C(Nc1cccc(Nc2ncc(Br)c(NCCc3cnc[nH]3)n2)c1)N1CCCC1
inactive: ZNF787 = -0.011 | ZNF800 = 0.031 | ZNF830 = -0.004 | ZNHIT3 = -0.058 | ZNHIT6 = -0.001 | ZNRD1 = 0.015

Cn1c2cc(S(C)=O)sc2c2cnn(Cc3cccc(N)c3)c(=O)c21 (stereo not given)
inactive: ZNF787 = 0.255 | ZNF800 = 0.323 | ZNF830 = -0.047 | ZNHIT1 = 0.152 | ZNHIT3 = -0.032 | ZNHIT6 = -0.13 | ZNRD1 = 0.013

Fc1ccc(Cl)cc1-c1nc(Nc2ccncc2)c2nccnc2n1
inactive: ZNF787 = -0.233 | ZNF830 = -0.002 | ZNF852 = -0.195 | ZNFX1 = -0.259 | ZNHIT1 = 0.015 | ZNHIT3 = -0.062 | ZNRD1 = 0.079

CCCCN(Cc1ccc(C(=O)NO)cc1)C(=O)Nc1ccccc1 [Nexturastat A]
inactive: ZNF787 = 0.11 | ZNF830 = -0.045 | ZNF852 = 0.244 | ZNFX1 = 0.213 | ZNHIT1 = 0.134 | ZNHIT3 = 0.126 | ZNRD1 = -0.049

Cn1cc(-c2ccc3c(c2)CCN3C(=O)Cc2cccc(C(F)(F)F)c2)c2c(N)ncnc21
inactive: ZNF787 = -0.35 | ZNF800 = -0.201 | ZNF830 = 0.003 | ZNHIT3 = 0.028 | ZNHIT6 = 0.021 | ZNRD1 = -0.099

CN1CCN(CCOc2cc(OC3CCOCC3)c3c(Nc4c(Cl)ccc5c4OCO5)ncnc3c2)CC1 [saracatinib]
inactive: ZNF787 = -0.168 | ZNF800 = -0.229 | ZNF830 = 0.057 | ZNHIT1 = -0.053 | ZNHIT3 = 0.07 | ZNHIT6 = 0.14 | ZNRD1 = 0.059

Cc1nc(Nc2n[nH]c3c2CN(C(=O)N[C@H](CN(C)C)c2ccccc2)C3(C)C)c2sccc2n1
inactive: ZNF787 = -0.056 | ZNF800 = -0.425 | ZNF830 = 0.029 | ZNHIT1 = 0.044 | ZNHIT3 = -0.004 | ZNHIT6 = 0.122 | ZNRD1 = 0.036

CC[C@H](C)n1cc(C)c2c(C(=O)NCc3c(C)cc(C)[nH]c3=O)cc(-c3ccc(N4CCNCC4)nc3)cc21
inactive: ZNF787 = -0.006 | ZNF800 = 0.016 | ZNF830 = -0.02 | ZNHIT1 = -0.058 | ZNHIT3 = -0.062 | ZNHIT6 = -0.08 | ZNRD1 = -0.046

CN1CC[C@H](c2c(O)cc(O)c3c(=O)cc(-c4ccccc4Cl)oc23)[C@H](O)C1 [alvocidib]
inactive: ZNF787 = 0.129 | ZNF800 = -0.114 | ZNF830 = -0.019 | ZNHIT3 = 0.015 | ZNHIT6 = -0.023 | ZNRD1 = 0.03

Cc1ncc(-c2ccnc(Nc3ccc(S(C)(=O)=O)cc3)n2)n1C(C)C
inactive: ZNF787 = -0.018 | ZNF800 = -0.155 | ZNF830 = -0.011 | ZNHIT1 = -0.061 | ZNHIT3 = -0.07 | ZNHIT6 = -0.071 | ZNRD1 = -0.035

Looked up by structure from the list above, two records:
CN1CCN(c2nc(C3=C(c4c[nH]c5ccccc45)C(=O)NC3=O)c3ccccc3n2)CC1 [sotrastaurin]
inactive: ZNF787 = 0.094 | ZNF800 = 0.079 | ZNF830 = 0.004 | ZNF852 = -0.029 | ZNHIT1 = 0.028 | ZNHIT3 = 0.06 | ZNHIT6 = 0.029 | ZNRD1 = 0.015

O=C1NC(=O)C(c2cnc3ccccn23)=C1c1cn2c3c(cc(F)cc13)CN(C(=O)N1CCCCC1)CC2
inactive: ZNF787 = 0.086 | ZNF830 = -0.013 | ZNF852 = 0.125 | ZNFX1 = 0.418 | ZNHIT1 = 0.037 | ZNHIT3 = -0.046 | ZNRD1 = -0.032

Continued:

C[C@@H](N)c1ccc(C(=O)Nc2ccnc3[nH]ccc23)cc1
inactive: ZNF787 = 0.088 | ZNF800 = 0.226 | ZNF830 = -0.048 | ZNHIT3 = -0.074 | ZNHIT6 = 0.012 | ZNRD1 = 0.064

COc1cc2ncnc(Nc3ccc(F)c(Cl)c3)c2cc1OCCCN1CCOCC1 [gefitinib]
inactive: ZNF787 = -0.088 | ZNF800 = 0.177 | ZNF830 = 0.002 | ZNHIT1 = -0.026 | ZNHIT3 = -0.057 | ZNHIT6 = 0 | ZNRD1 = 0.005

Cc1nc(Nc2ncc(C(=O)Nc3c(C)cccc3Cl)s2)cc(N2CCN(CCO)CC2)n1 [dasatinib]
inactive: ZNF787 = 0.108 | ZNF800 = 0.065 | ZNF830 = 0.006 | ZNHIT1 = -0.062 | ZNHIT3 = -0.016 | ZNHIT6 = 0.06 | ZNRD1 = 0.29

Cc1cn(-c2cc(NC(=O)c3ccc(C)c(Nc4nccc(-c5cccnc5)n4)c3)cc(C(F)(F)F)c2)cn1 [nilotinib]
inactive: ZNF787 = 0.018 | ZNF800 = 0.02 | ZNF830 = 0.042 | ZNHIT1 = -0.072 | ZNHIT3 = -0.117 | ZNHIT6 = -0.128 | ZNRD1 = -0.13

CC[C@H](C)[C@H](NC(=O)[C@H]([C@@H](C)CC)N(C)C(C)=O)C(=O)N[C@H](C(=O)N[C@@H](CC(C)C)C(=O)[C@@]1(C)CO1)[C@@H](C)O [epoxomicin]
inactive: ZNF787 = -0.134 | ZNF830 = 0.091 | ZNF852 = -0.098 | ZNFX1 = -0.099 | ZNHIT1 = 0.098 | ZNHIT3 = 0.159 | ZNRD1 = 0.121

CCn1c(C(=O)N(C2CC2)C2CC2)cc2c3c(ncn3C)c(Nc3cc(C)n(C)n3)nc21
inactive: ZNF787 = -0.044 | ZNF830 = 0.018 | ZNF852 = -0.063 | ZNHIT1 = 0.033 | ZNHIT3 = 0.025 | ZNHIT6 = -0.047 | ZNRD1 = 0.018

CO[C@H]1C[C@@H]2CC[C@@H](C)[C@@](O)(O2)C(=O)C(=O)N2CCCC[C@H]2C(=O)O[C@H]([C@H](C)C[C@@H]2CC[C@H](n3cnnn3)[C@H](OC)C2)CC(=O)[C@H](C)/C=C(\C)[C@@H](O)[C@@H](OC)C(=O)[C@H](C)C[C@H](C)/C=C/C=C/C=C/1C [zotarolimus]
inactive: ZNF787 = 0.019 | ZNF800 = 0.175 | ZNF830 = -0.061 | ZNHIT3 = -0.054 | ZNHIT6 = -0.147 | ZNRD1 = -0.128

CN1CCc2c(c3ccccc3n2Cc2ccc(C(=O)NO)cc2)C1 [Tubastatin A]
inactive: ZNF787 = 0.059 | ZNF800 = 0.199 | ZNF830 = 0.035 | ZNHIT3 = 0.059 | ZNHIT6 = 0.131 | ZNRD1 = -0.11

C[C@@H]1COCCN1c1cc(C2(S(C)(=O)=O)CC2)nc(-c2cccc3[nH]ccc23)n1
inactive: ZNF787 = -0.144 | ZNF830 = 0.027 | ZNF852 = -0.126 | ZNFX1 = 0.578 | ZNHIT1 = -0.084 | ZNHIT3 = -0.002 | ZNRD1 = -0.172

NC(=O)c1ccc2nc(-c3ccc(Oc4ccc(Cl)cc4)cc3)[nH]c2c1
inactive: ZNF787 = 0 | ZNF830 = 0.008 | ZNF852 = 0.023 | ZNHIT1 = 0.13 | ZNHIT3 = 0.042 | ZNHIT6 = 0.009 | ZNRD1 = -0.022

NC1(Cc2ccc(Cl)cc2)CCN(c2ncnc3[nH]ccc23)CC1
inactive: ZNF787 = -0.166 | ZNF800 = -0.19 | ZNF830 = 0.054 | ZNHIT3 = -0.008 | ZNHIT6 = -0.047 | ZNRD1 = 0.118

C[C@H](Nc1ncnc2nc[nH]c12)c1cc2cccc(Cl)c2c(=O)n1-c1ccccc1 [duvelisib]
inactive: ZNF787 = -0.352 | ZNF800 = 0.041 | ZNF830 = 0.021 | ZNHIT1 = -0.022 | ZNHIT3 = 0.055 | ZNHIT6 = -0.149 | ZNRD1 = -0.009

Cc1ccc2c(=O)c3ccccc3n(CCCN)c2c1C
inactive: ZNF787 = -0.024 | ZNF800 = -0.651 | ZNF830 = -0.004 | ZNHIT3 = -0.124 | ZNHIT6 = 0.034 | ZNRD1 = -0.185

Cc1cc(SCc2sc(-c3ccc(C(F)(F)F)cc3)nc2C)ccc1OCC(=O)O
inactive: ZNF787 = -0.023 | ZNF800 = -0.095 | ZNF830 = -0.058 | ZNHIT1 = -0.029 | ZNHIT3 = -0.062 | ZNHIT6 = -0.11 | ZNRD1 = -0.253

CC(C)(O)CC(=O)NCCn1ccc2ncnc(Nc3ccc(Oc4cccc(C(F)(F)F)c4)c(Cl)c3)c21
inactive: ZNF787 = 0.079 | ZNF830 = -0.003 | ZNF852 = 0.216 | ZNFX1 = 0.282 | ZNHIT1 = 0.025 | ZNHIT3 = -0.036 | ZNRD1 = 0.104

CNc1nc(-c2ccc3c(N)n[nH]c3c2)cc(N2C[C@@H](C(=O)NC3CCCCC3)CC[C@H]2C)n1
inactive: ZNF787 = 0.054 | ZNF800 = 0.091 | ZNF830 = -0.094 | ZNHIT1 = 0.073 | ZNHIT3 = -0.045 | ZNHIT6 = 0.131 | ZNRD1 = -0.219

Cc1ccc(NC(=O)c2ccc(CN3CC[C@H](N(C)C)C3)c(C(F)(F)F)c2)cc1Nc1nccc(-c2cncnc2)n1 [bafetinib]
inactive: ZNF787 = 0.215 | ZNF830 = -0.063 | ZNHIT1 = 0.068 | ZNHIT3 = -0.143 | ZNHIT6 = -0.211 | ZNRD1 = 0.158
